Test results reported in publication PMC4596637.
These are yes or no findings as the source states them, for the method shown. Some binding calls cover weakened binding; strength is not graded here. Where a sequence is shown, tags or fusion partners need not be part of it.

Chains of the proteins cited; added tags and fusions are not shown.
UniProt Q1L8J7: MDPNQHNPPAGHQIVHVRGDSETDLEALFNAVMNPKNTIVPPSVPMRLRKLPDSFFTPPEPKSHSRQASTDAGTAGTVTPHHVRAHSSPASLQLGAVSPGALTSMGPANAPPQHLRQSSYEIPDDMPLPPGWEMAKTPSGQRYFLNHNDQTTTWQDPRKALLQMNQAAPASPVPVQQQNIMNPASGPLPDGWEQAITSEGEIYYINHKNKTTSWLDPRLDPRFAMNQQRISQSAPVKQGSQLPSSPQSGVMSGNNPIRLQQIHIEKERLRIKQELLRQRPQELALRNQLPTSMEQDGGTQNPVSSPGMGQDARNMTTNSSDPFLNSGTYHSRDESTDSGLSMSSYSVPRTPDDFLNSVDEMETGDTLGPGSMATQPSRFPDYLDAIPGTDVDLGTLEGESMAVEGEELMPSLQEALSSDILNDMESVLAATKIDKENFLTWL

Target: T1, zebrafish Amotl2a fused to the Gal4 DNA-binding domain (pGBKT7) (zebrafish) (UniProt A1YB07)
T1 sequence: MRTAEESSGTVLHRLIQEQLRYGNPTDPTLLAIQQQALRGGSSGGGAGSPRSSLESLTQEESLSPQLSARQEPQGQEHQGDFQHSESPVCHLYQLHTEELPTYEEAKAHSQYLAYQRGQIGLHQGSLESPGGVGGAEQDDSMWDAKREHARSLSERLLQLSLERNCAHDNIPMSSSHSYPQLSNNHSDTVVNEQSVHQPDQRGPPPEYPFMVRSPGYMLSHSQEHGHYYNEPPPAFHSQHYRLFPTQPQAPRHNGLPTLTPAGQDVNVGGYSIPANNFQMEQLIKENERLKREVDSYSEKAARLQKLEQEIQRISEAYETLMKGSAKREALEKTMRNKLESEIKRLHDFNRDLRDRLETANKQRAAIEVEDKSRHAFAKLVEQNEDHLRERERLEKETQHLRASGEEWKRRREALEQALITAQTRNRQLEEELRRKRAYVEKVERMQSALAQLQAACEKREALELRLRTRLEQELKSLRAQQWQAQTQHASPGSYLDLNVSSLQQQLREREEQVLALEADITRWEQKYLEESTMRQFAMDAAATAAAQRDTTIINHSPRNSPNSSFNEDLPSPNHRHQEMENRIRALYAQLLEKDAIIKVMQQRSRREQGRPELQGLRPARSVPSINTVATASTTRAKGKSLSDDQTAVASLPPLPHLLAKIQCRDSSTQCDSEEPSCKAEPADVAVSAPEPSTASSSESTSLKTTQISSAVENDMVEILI
Assay: two-hybrid; Y2H assay, Matchmaker system, AH109 yeast; Amotl2a forms fused to the Gal4 DNA-binding domain (pGBKT7), Yap1/Taz forms fused to the Gal4 activation domain (pGADT7); patched on selective plates lacking histidine, grown 3-4 days

- binding: binds
Substance: zebrafish Yap1 fused to the Gal4 activation domain (pGADT7) (from UniProt Q1L8J7 1-442)
